Consider 27 compounds from the supplement of paper PMC4604168 (melanoma cell lines).

Molecules are shown by their SMILES. The list shows a part of the results. Repeats are few or missing, and single values can be far off.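 The apoptosis fraction was the count of cleaved-PARP antibody-stained nuclei relative to all DNA-stained nuclei, imaged in 1,536-well plates. Screening doses were set so most cells survived, and baseline and induced cleaved-PARP levels vary greatly across cell lines.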

The first experiment relates to CBRC014 (line from a melanoma biopsy). As to the kind of experiment: cleaved PARP positive nuclei fraction relative to DMSO control; melanoma cells; higher = more apoptosis. The note with it: library dose: low library concentration; 72 h.
In the case of `CS(=O)(=O)CCNCc1ccc(-c2ccc3ncnc(Nc4ccc(OCc5cccc(F)c5)c(Cl)c4)c3c2)o1` [lapatinib] + COCC[n+]1c2c(n(Cc3cnccn3)c1C)C(=O)c1ccccc1C2=O [YM155] (first compound 0.8 µM, partner dose 0.0004 µM), the “cleaved PARP positive nuclei fraction” value turned out to be 98.1%.

Consider `CCCS(=O)(=O)Nc1ccc(F)c(C(=O)c2c[nH]c3ncc(Cl)cc23)c1F` + Nc1nc(F)nc2c1ncn2[C@@H]1O[C@H](CO)[C@@H](O)[C@@H]1O [fludarabine] (first compound 0.08 µM, partner dose 0.2 µM), for which the “cleaved PARP positive nuclei fraction” value stood at 123%.

Take `Cc1cc(Nc2cc(N3CCN(C)CC3)nc(/C=C/c3ccccc3)n2)n[nH]1` + CO[C@H]1C[C@@H]2CC[C@@H](C)[C@@](O)(O2)C(=O)C(=O)N2CCCC[C@H]2C(=O)O[C@H]([C@H](C)C[C@@H]2CC[C@@H](OCCO)[C@H](OC)C2)CC(=O)[C@H](C)/C=C(\C)[C@@H](O)[C@@H](OC)C(=O)[C@H](C)C[C@H](C)/C=C/C=C/C=C/1C [everolimus] (first compound 0.04 µM, partner dose 0.02 µM): the “cleaved PARP positive nuclei fraction” value was determined as 84.8%.

In the case of `CCCS(=O)(=O)Nc1ccc(F)c(C(=O)c2c[nH]c3ncc(Cl)cc23)c1F` + Nc1ncn([C@H]2C[C@H](O)[C@@H](CO)O2)c(=O)n1 [decitabine] (first compound 0.08 µM, partner dose 0.1 µM), the “cleaved PARP positive nuclei fraction” value came to 103%.

Another experiment has as its system CBRC016 (line from a melanoma biopsy). The experiment is described as above. To be noted: library dose: low library concentration; 72 h.
With `Cn1c(=O)n(-c2ccc(C(C)(C)C#N)cc2)c2c3cc(-c4cnc5ccccc5c4)ccc3ncc21` + CN1CCN(c2ccc3nc(-c4c(N)c5c(F)cccc5[nH]c4=O)[nH]c3c2)CC1 [Dovitinib] (first compound 0.004 µM, partner dose 0.1 µM), the “cleaved PARP positive nuclei fraction” value was determined as 60.3%.

On to `O=C(O)c1ccc2c(c1)nc(Nc1cccc(Cl)c1)c1ccncc12` + COc1ccc(Cl)c(Nc2nc3ccccc3nc2NS(=O)(=O)c2cccc(NC(=O)C(C)(C)N)c2)c1 [XL147] (first compound 0.4 µM, partner dose 0.8 µM), for which the “cleaved PARP positive nuclei fraction” value was 242%.

On to `CNC(=O)c1cc(Oc2ccc(NC(=O)Nc3ccc(Cl)c(C(F)(F)F)c3)cc2)ccn1` [sorafenib] + OCc1c[nH]c2ccccc12 [Indole-3-carbinol] (first compound 0.4 µM, partner dose 0.8 µM), for which the “cleaved PARP positive nuclei fraction” value was 68.8%.

`CO[C@H]1C[C@@H]2CC[C@@H](C)[C@@](O)(O2)C(=O)C(=O)N2CCCC[C@H]2C(=O)O[C@H]([C@H](C)C[C@@H]2CC[C@@H](OCCO)[C@H](OC)C2)CC(=O)[C@H](C)/C=C(\C)[C@@H](O)[C@@H](OC)C(=O)[C@H](C)C[C@H](C)/C=C/C=C/C=C/1C` [everolimus] + O=C(O)c1ccc2c(c1)nc(Nc1cccc(Cl)c1)c1ccncc12 [CX4945] (first compound 0.02 µM, partner dose 0.4 µM): the “cleaved PARP positive nuclei fraction” value was found to be 162%.

Consider `Cn1c(=O)n(-c2ccc(C(C)(C)C#N)cc2)c2c3cc(-c4cnc5ccccc5c4)ccc3ncc21` + O=C(O)c1ccc2c(c1)nc(Nc1cccc(Cl)c1)c1ccncc12 [CX4945] (first compound 0.004 µM, partner dose 0.4 µM), for which the “cleaved PARP positive nuclei fraction” value worked out at 140%.

For `CNC(=O)c1cc(Oc2ccc(NC(=O)Nc3ccc(Cl)c(C(F)(F)F)c3)cc2)ccn1` [sorafenib] + Cn1c(Nc2ccc(C(F)(F)F)cc2)nc2cc(Oc3ccnc(-c4ncc(C(F)(F)F)[nH]4)c3)ccc21 [CHIR265] (first compound 0.4 µM, partner dose 0.08 µM), the “cleaved PARP positive nuclei fraction” value came to 136%.

On to `Cc1cc(Nc2cc(N3CCN(C)CC3)nc(/C=C/c3ccccc3)n2)n[nH]1` + NC1(c2ccc(-c3nc4ccn5c(=O)[nH]nc5c4cc3-c3ccccc3)cc2)CCC1 [MK2206] (first compound 0.04 µM, partner dose 0.4 µM), for which the “cleaved PARP positive nuclei fraction” value was 111%.

Turning to `CC(C)C[C@H](NC(=O)[C@H](Cc1ccccc1)NC(=O)c1cnccn1)B(O)O` [Bortezomib] + CS(=O)(=O)CCNCc1ccc(-c2ccc3ncnc(Nc4ccc(OCc5cccc(F)c5)c(Cl)c4)c3c2)o1 [lapatinib] (first compound 0.001 µM, partner dose 0.8 µM), the “cleaved PARP positive nuclei fraction” value was 666%.

Consider `CO[C@H]1C[C@@H]2CC[C@@H](C)[C@@](O)(O2)C(=O)C(=O)N2CCCC[C@H]2C(=O)O[C@H]([C@H](C)C[C@@H]2CC[C@@H](OCCO)[C@H](OC)C2)CC(=O)[C@H](C)/C=C(\C)[C@@H](O)[C@@H](OC)C(=O)[C@H](C)C[C@H](C)/C=C/C=C/C=C/1C` [everolimus] + Cn1nnc2c(C(N)=O)ncn2c1=O [temozolomide] (first compound 0.02 µM, partner dose 2 µM), for which the “cleaved PARP positive nuclei fraction” value came to 103%.

Take `O=C(O)[C@@H]1[O][Sb](=[O])([O][Sb]2(=[O])[O][C@H]([C@H](O)CO)[C@H](O)[C@H](C(=O)O)[O]2)[O][C@H]([C@H](O)CO)[C@@H]1O` (some centres not stated) [stibogluconate] + C#Cc1cccc(Nc2ncnc3cc(OCCOC)c(OCCOC)cc23)c1 [erlotinib] (first compound 2 µM, partner dose 0.8 µM): the “cleaved PARP positive nuclei fraction” value was determined as 79.4%.

For `C=C(c1ccc(C(=O)O)cc1)c1cc2c(cc1C)C(C)(C)CCC2(C)C` [Bexarotene] + Nc1nc(F)nc2c1ncn2[C@@H]1O[C@H](CO)[C@@H](O)[C@@H]1O [fludarabine] (first compound 2 µM, partner dose 0.2 µM), the “cleaved PARP positive nuclei fraction” value turned out to be 217%.

For the compound `CNC(=O)c1cc(Oc2ccc(NC(=O)Nc3ccc(Cl)c(C(F)(F)F)c3)cc2)ccn1` [sorafenib] + C=CCNC1=C2C[C@@H](C)C[C@H](OC)[C@H](O)[C@@H](C)/C=C(\C)[C@H](OC(N)=O)[C@@H](OC)/C=C\C=C(/C)C(=O)NC(=CC1=O)C2=O [Tanespimycin] (first compound 0.4 µM, partner dose 0.002 µM), the “cleaved PARP positive nuclei fraction” value is 103%.

Take `Cn1c(=O)n(-c2ccc(C(C)(C)C#N)cc2)c2c3cc(-c4cnc5ccccc5c4)ccc3ncc21` + Nc1ncn([C@H]2C[C@H](O)[C@@H](CO)O2)c(=O)n1 [decitabine] (first compound 0.004 µM, partner dose 0.1 µM): the “cleaved PARP positive nuclei fraction” value turned out to be 145%.

Turning to `CC(C)C[C@H](NC(=O)[C@H](Cc1ccccc1)NC(=O)c1cnccn1)B(O)O` [Bortezomib] + C=C(c1ccc(C(=O)O)cc1)c1cc2c(cc1C)C(C)(C)CCC2(C)C [Bexarotene] (first compound 0.001 µM, partner dose 2 µM), the “cleaved PARP positive nuclei fraction” value came out at 335%.

As to `CCCS(=O)(=O)Nc1ccc(F)c(C(=O)c2c[nH]c3ncc(Cl)cc23)c1F` + COCC[n+]1c2c(n(Cc3cnccn3)c1C)C(=O)c1ccccc1C2=O [YM155] (first compound 0.08 µM, partner dose 0.0004 µM), the “cleaved PARP positive nuclei fraction” value worked out at 115%.

Turning to `CN1CCN(c2ccc3nc(-c4c(N)c5c(F)cccc5[nH]c4=O)[nH]c3c2)CC1` [Dovitinib] + Cn1c(Nc2ccc(C(F)(F)F)cc2)nc2cc(Oc3ccnc(-c4ncc(C(F)(F)F)[nH]4)c3)ccc21 [CHIR265] (first compound 0.1 µM, partner dose 0.08 µM), the “cleaved PARP positive nuclei fraction” value is 23.7%.

With `Cn1c(=O)n(-c2ccc(C(C)(C)C#N)cc2)c2c3cc(-c4cnc5ccccc5c4)ccc3ncc21` + Cn1nnc2c(C(N)=O)ncn2c1=O [temozolomide] (first compound 0.004 µM, partner dose 2 µM), the “cleaved PARP positive nuclei fraction” value came out at 139%.

Regarding `CC(C)C[C@H](NC(=O)[C@H](Cc1ccccc1)NC(=O)c1cnccn1)B(O)O` [Bortezomib] + C[C@@H](Oc1cc(-c2cnn(C3CCNCC3)c2)cnc1N)c1c(Cl)ccc(F)c1Cl [Crizotinib] (first compound 0.001 µM, partner dose 0.2 µM), the “cleaved PARP positive nuclei fraction” value is 952%.

For the compound `O=C(O)[C@@H]1[O][Sb](=[O])([O][Sb]2(=[O])[O][C@H]([C@H](O)CO)[C@H](O)[C@H](C(=O)O)[O]2)[O][C@H]([C@H](O)CO)[C@@H]1O` (some centres not stated) [stibogluconate] + OCc1c[nH]c2ccccc12 [Indole-3-carbinol] (first compound 2 µM, partner dose 0.8 µM), the “cleaved PARP positive nuclei fraction” value worked out at 90%.

Consider `C=C(c1ccc(C(=O)O)cc1)c1cc2c(cc1C)C(C)(C)CCC2(C)C` [Bexarotene] + Cn1nnc2c(C(N)=O)ncn2c1=O [temozolomide] (first compound 2 µM, partner dose 2 µM), for which the “cleaved PARP positive nuclei fraction” value was 88.3%.

As to `Nc1ncn([C@H]2C[C@H](O)[C@@H](CO)O2)c(=O)n1` [decitabine] + C[C@]1(c2nc3c(C(N)=O)cccc3[nH]2)CCCN1 [Veliparib] (first compound 0.1 µM, partner dose 1.4 µM), the “cleaved PARP positive nuclei fraction” value came to 82%.

Consider `CN1CCN(c2ccc3nc(-c4c(N)c5c(F)cccc5[nH]c4=O)[nH]c3c2)CC1` [Dovitinib] + Nc1nc(F)nc2c1ncn2[C@@H]1O[C@H](CO)[C@@H](O)[C@@H]1O [fludarabine] (first compound 0.1 µM, partner dose 0.2 µM), for which the “cleaved PARP positive nuclei fraction” value turned out to be 63.4%.

As for `CO[C@H]1C[C@@H]2CC[C@@H](C)[C@@](O)(O2)C(=O)C(=O)N2CCCC[C@H]2C(=O)O[C@H]([C@H](C)C[C@@H]2CC[C@@H](OCCO)[C@H](OC)C2)CC(=O)[C@H](C)/C=C(\C)[C@@H](O)[C@@H](OC)C(=O)[C@H](C)C[C@H](C)/C=C/C=C/C=C/1C` [everolimus] + Clc1ccc(Nc2nnc(Cc3ccncc3)c3ccccc23)cc1 [vatalanib] (first compound 0.02 µM, partner dose 2 µM), the “cleaved PARP positive nuclei fraction” value was found to be 96.6%.
